Assay results published in patent US20240374492A1, “A SUNSCREEN COMPOSITION COMPRISING AVOBENZONE AND A METHOD FOR PHOTOSTABILIZATION” (ISP Investments LLC, priority 2021, published 2024).

Experiment: Evaluation of odor of solvents by panel
Set-up: key: good (acceptable); bad (not acceptable)
Conditions: panel of 13 male and female members; score given by highest number of panelists

Compound | Odor of the composition
CC(CCOC(=O)c1ccccc1)OC(=O)c1ccccc1 (stereo not shown) [1,3-Butylene glycol Dibenzoate] | good
Cc1ccc(C(=O)OC(C)c2ccccc2)cc1 (stereo not shown) [1-Phenylethyl p-toluate] | bad
CCC(OC(=O)c1ccccc1)c1ccccc1 (stereo not shown) [1-Phenylpropyl Benzoate] | bad
O=C(OCCC1CCCCC1)c1ccccc1 [2-Cyclohexylethyl Benzoate] | good
O=C(OCCc1ccccc1)C1CCCCC1 [2-Phenylethyl Cyclohexanoate] | bad
CCCCCC(=O)OCCc1ccccc1 [2-Phenylethyl Hexanoate] | bad
CCC(=O)OCCc1ccccc1 [2-Phenylethyl Propionate] | good
Cc1ccccc1C(=O)OCCc1ccccc1 [2-Phenylethyl o-toluate] | good
O=C(OCCCc1ccccc1)c1ccccc1 [3-Phenylpropyl Benzoate] | bad
CCc1ccc(C(=O)OCc2ccccc2)cc1 [Benzyl 4-Ethylbenzoate] | bad
CC(C)(C)c1ccc(C(=O)OCc2ccccc2)cc1 [Benzyl 4-tert-Butylbenzoate] | bad
O=C(OCc1ccccc1)c1ccccc1 [Benzyl Benzoate] | bad
O=C(OCc1ccccc1)c1ccccc1O [Benzyl Salicylate] | good
Cc1cccc(C(=O)OCc2ccccc2)c1 [Benzyl m-toluate] | bad
Cc1ccccc1C(=O)OCc1ccccc1 [Benzyl o-toluate] | good
O=C(OC1CCCCC1)c1ccccc1 [Cyclohexyl Benzoate] | good
Cc1ccccc1C(=O)OC1CCCCC1 [Cyclohexyl o-toluate] | good
CCN(CC)C(=O)c1cccc(C)c1 [N,N-Diethyl m-toluamide] | good
O=C(OCCc1ccccc1)c1ccccc1 [Phenethyl benzoate] | good
CC(COC(=O)c1ccccc1)OC(=O)c1ccccc1 (stereo not shown) [Propylene glycol Dibenzoate] | good
Cc1cccc(COC(=O)c2ccccc2)c1 [m-Methylbenzyl Benzoate] | bad
Cc1ccccc1COC(=O)c1ccccc1 [o-Methylbenzyl Benzoate] | bad
